In US20140227179A1:
Substitutions are numbered along the chain they refer to. Results are given in words; binding and its absence hold for the method and conditions named. Some binding calls cover weakened binding; strength is not graded here. Each block holds one binder with its values, some of them ahead of it.

Amino acid sequences for entries named in this document (tags omitted). Residues count along the entry.
UniProt P98088, residues 28-5654: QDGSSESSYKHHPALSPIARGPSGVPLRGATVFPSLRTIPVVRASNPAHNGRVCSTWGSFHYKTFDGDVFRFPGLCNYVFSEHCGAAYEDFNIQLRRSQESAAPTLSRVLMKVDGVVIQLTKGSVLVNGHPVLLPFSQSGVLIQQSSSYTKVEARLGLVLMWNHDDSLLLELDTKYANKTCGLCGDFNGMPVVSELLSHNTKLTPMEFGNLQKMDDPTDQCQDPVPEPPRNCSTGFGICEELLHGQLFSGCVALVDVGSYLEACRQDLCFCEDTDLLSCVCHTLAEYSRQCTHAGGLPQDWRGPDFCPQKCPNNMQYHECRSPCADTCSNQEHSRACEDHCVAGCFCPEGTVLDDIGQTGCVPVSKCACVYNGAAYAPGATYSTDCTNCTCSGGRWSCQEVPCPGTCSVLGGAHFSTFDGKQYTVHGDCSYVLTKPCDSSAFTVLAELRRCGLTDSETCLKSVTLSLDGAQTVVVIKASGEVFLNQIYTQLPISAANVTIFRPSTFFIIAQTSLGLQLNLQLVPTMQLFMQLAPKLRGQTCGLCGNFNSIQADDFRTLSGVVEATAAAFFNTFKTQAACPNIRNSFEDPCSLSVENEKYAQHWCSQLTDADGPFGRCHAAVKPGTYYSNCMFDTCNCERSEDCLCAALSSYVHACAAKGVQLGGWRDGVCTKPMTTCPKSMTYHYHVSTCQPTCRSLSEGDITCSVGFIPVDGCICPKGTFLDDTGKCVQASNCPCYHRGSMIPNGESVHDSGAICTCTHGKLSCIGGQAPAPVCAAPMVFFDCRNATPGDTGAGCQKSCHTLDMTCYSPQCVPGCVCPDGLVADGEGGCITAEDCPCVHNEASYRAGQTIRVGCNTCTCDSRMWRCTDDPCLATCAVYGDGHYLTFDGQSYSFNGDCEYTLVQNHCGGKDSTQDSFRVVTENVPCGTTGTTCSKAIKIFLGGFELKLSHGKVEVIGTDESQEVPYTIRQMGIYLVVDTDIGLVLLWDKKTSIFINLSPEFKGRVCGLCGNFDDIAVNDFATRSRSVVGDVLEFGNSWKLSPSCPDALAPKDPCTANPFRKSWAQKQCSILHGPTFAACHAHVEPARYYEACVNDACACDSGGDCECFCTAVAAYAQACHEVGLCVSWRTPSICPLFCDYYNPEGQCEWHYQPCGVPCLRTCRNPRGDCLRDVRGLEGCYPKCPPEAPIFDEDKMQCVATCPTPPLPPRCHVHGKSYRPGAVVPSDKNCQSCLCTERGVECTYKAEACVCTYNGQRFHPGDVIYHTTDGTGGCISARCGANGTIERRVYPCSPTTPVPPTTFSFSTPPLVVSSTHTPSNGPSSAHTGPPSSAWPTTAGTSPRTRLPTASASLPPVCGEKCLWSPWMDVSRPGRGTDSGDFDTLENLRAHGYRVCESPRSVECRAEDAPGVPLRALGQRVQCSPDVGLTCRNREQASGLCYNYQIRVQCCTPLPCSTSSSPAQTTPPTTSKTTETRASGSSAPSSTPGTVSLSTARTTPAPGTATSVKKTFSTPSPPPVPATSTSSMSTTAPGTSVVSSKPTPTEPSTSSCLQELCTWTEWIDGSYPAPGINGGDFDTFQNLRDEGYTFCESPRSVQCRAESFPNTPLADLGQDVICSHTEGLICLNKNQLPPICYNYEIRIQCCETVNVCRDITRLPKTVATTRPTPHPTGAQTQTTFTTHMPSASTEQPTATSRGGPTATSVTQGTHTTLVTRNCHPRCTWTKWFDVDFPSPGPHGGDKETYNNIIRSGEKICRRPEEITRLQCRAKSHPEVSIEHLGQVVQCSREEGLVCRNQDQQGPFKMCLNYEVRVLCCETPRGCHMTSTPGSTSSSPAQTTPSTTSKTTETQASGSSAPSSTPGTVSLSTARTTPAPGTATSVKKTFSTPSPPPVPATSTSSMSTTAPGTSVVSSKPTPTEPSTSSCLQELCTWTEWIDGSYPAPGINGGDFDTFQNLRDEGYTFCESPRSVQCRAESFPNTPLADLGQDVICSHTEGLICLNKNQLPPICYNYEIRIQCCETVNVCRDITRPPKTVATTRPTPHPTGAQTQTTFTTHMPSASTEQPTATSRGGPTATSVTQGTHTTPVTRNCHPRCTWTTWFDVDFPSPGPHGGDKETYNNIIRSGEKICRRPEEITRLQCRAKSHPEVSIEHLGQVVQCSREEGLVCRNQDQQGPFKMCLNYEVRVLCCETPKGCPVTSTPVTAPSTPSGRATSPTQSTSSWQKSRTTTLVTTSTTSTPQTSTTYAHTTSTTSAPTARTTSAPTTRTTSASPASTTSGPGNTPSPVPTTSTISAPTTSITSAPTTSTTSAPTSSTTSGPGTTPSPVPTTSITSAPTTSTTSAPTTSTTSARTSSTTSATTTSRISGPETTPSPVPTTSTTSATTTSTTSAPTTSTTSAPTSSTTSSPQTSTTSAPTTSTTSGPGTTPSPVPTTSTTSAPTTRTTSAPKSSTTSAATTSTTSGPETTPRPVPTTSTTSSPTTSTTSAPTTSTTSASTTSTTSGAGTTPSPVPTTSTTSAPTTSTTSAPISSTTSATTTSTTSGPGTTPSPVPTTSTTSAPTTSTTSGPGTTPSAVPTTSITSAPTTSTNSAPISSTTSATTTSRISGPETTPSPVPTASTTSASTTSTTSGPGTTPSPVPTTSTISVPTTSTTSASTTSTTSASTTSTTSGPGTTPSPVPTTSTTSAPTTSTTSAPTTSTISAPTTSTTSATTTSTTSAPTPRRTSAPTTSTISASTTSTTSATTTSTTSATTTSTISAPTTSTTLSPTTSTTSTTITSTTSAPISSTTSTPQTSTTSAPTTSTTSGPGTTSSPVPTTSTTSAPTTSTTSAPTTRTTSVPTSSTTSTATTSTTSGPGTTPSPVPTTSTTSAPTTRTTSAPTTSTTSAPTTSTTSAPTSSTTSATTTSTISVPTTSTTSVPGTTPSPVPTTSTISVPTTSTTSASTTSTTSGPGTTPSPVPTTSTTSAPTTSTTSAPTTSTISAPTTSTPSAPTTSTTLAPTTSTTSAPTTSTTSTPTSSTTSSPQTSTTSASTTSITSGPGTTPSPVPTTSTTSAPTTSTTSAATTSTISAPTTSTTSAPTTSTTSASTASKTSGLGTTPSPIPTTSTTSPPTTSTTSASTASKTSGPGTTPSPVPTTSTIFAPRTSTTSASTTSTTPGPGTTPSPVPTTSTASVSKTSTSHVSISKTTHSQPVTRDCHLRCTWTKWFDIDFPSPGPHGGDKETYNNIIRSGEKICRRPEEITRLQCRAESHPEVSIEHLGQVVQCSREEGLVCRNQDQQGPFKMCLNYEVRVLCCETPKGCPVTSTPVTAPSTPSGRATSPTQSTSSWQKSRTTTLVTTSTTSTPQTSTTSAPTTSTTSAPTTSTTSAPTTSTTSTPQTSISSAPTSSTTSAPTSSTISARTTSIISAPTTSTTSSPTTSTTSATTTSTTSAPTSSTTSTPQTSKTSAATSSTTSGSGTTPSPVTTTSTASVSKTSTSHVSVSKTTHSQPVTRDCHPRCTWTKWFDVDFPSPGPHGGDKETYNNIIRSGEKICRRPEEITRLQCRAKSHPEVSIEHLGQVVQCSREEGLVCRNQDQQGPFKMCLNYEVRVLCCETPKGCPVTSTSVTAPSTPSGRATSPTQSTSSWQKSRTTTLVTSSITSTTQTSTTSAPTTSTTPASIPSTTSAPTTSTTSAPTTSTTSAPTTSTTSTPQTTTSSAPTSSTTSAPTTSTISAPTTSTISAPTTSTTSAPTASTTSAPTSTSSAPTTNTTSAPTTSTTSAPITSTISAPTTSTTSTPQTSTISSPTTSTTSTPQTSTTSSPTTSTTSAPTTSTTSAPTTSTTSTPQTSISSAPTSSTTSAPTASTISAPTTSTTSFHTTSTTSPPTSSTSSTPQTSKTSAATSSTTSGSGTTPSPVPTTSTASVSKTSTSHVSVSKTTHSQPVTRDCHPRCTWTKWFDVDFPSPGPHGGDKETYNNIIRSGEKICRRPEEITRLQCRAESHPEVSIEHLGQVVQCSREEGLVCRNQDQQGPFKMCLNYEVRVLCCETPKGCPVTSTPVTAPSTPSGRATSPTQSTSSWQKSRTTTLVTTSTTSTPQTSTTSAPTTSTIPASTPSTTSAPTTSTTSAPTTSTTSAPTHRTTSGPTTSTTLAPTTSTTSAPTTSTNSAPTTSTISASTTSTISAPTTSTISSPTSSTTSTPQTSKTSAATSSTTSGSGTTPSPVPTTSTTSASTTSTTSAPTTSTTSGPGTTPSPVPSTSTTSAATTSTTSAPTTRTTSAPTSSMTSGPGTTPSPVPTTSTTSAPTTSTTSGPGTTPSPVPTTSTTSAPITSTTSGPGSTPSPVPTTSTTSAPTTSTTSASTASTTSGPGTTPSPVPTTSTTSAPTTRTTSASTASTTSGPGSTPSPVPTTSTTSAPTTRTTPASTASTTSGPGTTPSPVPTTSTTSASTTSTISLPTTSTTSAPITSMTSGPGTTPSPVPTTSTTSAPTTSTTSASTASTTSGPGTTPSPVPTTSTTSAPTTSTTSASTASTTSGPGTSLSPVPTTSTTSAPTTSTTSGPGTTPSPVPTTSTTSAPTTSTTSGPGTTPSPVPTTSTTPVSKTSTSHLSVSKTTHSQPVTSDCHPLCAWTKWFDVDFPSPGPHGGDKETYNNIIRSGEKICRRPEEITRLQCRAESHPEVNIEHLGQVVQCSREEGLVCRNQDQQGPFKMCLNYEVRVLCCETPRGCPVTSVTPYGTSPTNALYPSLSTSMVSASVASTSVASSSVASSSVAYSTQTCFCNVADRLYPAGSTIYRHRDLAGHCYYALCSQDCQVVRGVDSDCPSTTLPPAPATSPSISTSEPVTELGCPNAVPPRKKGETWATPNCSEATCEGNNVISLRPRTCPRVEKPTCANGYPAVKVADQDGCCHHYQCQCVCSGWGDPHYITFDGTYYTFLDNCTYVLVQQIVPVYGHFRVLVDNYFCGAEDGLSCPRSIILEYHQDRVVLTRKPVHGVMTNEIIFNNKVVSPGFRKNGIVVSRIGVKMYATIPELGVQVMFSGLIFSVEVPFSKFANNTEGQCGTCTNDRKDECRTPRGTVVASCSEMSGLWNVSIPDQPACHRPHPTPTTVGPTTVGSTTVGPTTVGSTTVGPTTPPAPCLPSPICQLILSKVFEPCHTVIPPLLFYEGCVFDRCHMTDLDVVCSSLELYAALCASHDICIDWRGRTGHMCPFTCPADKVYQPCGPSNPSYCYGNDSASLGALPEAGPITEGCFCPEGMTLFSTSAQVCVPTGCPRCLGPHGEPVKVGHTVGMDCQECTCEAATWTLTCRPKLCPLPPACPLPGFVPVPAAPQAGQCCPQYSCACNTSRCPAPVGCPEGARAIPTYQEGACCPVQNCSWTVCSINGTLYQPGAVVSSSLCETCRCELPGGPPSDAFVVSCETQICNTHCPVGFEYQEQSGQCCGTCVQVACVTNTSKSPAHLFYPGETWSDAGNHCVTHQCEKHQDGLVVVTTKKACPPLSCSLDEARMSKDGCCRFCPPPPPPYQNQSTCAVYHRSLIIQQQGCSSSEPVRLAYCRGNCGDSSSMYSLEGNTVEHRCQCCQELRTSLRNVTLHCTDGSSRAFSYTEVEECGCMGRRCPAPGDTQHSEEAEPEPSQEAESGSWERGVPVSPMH

Experiments:
[1] = target: MUC5ac mucin (PAM4 antigen) from CaPan1 human pancreatic carcinoma (human) (UniProt P98088); test: competition assay of FIG. 5; competitor labelled cPAM4
[2] = target: MUC5ac mucin (PAM4 antigen) from CaPan1 human pancreatic carcinoma (human) (UniProt P98088); test: competitive ELISA on PAM4-antigen (CaPan1 Ag) coated plates; competitor HRP-conjugated cPAM4
[3] = target: MUC5ac mucin (PAM4 antigen) from CaPan1 human pancreatic carcinoma (human) (UniProt P98088); test: sandwich EIA, PAM4 capture
[4] = target: MUC5ac mucin (PAM4 antigen) from CaPan1 human pancreatic carcinoma (human) (UniProt P98088); test: indirect, sandwich and blocking EIA taken together
[5] = target: MUC5ac mucin (PAM4 antigen) from CaPan1 human pancreatic carcinoma (human) (UniProt P98088); test: indirect EIA on CPM1 (FIG. 25), MAbs at 10 µg/mL
[6] = target: MUC5ac mucin (PAM4 antigen) from CaPan1 human pancreatic carcinoma (human) (UniProt P98088); test: indirect EIA on CPM1-coated plates, MAb at 10 µg/mL
[7] = target: MUC5ac mucin (PAM4 antigen) from CaPan1 human pancreatic carcinoma (human) (UniProt P98088); test: inhibition EIA on CPM1-coated plates (FIG. 27A); competitor hPAM4

binding [1]: binds
binding [2]: binds
B1: chimeric PAM4 (cPAM4) (antibody, V domains shown)
VH: QVQLQESGPELVKPGASVKMSCKASGYTFPSYVLHWVKQKPGQGLEWIGYINPYNDGTQYNEKFKGKATLTSDKSSSTAYMELSRLTSEDSAVYYCARGFGGSYGFAYWGQGTLITVSS
VL: DIQLTQSPAIMSASPGEKVTMTCSASSSVSSSYLYWYQQKPGSSPKLWIYSTSNLASGVPARFSGSGSGTSYSLTISSMEAEDAASYFCHQWNRYPYTFGGGTKLEIKR

binding [3]: binds
binding [4]: binds
B2: PAM4 antibody (version not stated where used) (antibody, V domains shown)
VH: B1 VH with Q1E, S119A
VL: DIVMTQSPAIMSASPGEKVTMTCSASSSVSSSYLYWYQQKPGSSPKLWIYSTSNLASGVPARFSGSGSGTSYSLTISSMEAEDAASYFCHQWNRYPYTFGGGTKLEIK

binding [5]: binds
binding [6]: binds
binding [7]: binds
B3: murine PAM4 (mPAM4) IgG (antibody, V domains shown)
VH: B1 VH with Q1E, S119A
VL: B2 VL
